Consider 1 substance from paper PMC11997057, “PIN1-SUMO2/3 motif suppresses excessive RNF168 chromatin accumulation and ubiquitin signaling to promote IR resistance” (Nature Communications, 2025).

These are yes or no findings as the source states them, for the method shown. In cells and extracts the contact can be indirect. Some entries that bind do so weakly or less than the wild type.

For the experiment, the target named is GFP-WT-RNF168 (UniProt Q8IYW5). Description: co-IP; GFP-Trap agarose beads, 3-5 mg cleared lysate in NETN lysis buffer (150 mM NaCl, 50 mM Tris-HCl pH 7.5, 2 mM MgCl2, 1% NP-40, Benzonase) at 4 C for 5 h; western blot. (In western blotting, separated proteins are transferred to a membrane and probed.)

“p97/VCP (from UniProt P55072 1-806) (enzyme)”: the binding entry was “binds”.
